Measurements: the supplement of paper PMC6411743
± gives the standard deviation of the averaged measurements. Only a part is listed here, and it is no random draw.

Sequences of proteins named here, by UniProt entry; tags and fusion partners are left off. A change or cut given only in a name is not applied to a line headed by its entry.
UniProt O95466, whole entry: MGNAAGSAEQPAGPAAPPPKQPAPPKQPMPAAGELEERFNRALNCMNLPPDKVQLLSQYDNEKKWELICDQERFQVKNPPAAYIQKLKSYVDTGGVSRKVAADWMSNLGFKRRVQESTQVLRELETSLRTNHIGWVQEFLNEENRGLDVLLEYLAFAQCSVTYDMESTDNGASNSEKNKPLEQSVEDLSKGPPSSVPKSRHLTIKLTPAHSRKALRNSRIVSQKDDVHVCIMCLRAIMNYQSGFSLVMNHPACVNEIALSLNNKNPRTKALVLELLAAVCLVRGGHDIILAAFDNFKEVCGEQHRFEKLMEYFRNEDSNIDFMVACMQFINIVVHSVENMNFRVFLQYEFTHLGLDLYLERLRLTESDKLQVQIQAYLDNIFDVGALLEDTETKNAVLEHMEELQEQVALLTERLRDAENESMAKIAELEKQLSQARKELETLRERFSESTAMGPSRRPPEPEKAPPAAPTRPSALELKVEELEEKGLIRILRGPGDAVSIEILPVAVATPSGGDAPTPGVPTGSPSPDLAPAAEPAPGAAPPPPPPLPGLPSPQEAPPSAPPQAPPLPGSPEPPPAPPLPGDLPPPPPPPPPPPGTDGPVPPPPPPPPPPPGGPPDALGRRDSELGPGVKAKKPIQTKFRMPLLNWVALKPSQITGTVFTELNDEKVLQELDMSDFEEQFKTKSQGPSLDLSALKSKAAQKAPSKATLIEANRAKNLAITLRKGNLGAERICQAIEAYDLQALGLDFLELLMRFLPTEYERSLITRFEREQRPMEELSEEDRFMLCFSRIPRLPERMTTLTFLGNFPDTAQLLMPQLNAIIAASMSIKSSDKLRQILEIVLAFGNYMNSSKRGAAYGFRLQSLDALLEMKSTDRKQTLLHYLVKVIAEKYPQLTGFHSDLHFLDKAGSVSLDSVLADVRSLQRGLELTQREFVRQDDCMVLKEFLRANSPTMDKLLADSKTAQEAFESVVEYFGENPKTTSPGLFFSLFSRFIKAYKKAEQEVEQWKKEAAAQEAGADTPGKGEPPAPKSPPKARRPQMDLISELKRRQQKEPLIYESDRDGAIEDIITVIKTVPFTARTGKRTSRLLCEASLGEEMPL
UniProt O75884: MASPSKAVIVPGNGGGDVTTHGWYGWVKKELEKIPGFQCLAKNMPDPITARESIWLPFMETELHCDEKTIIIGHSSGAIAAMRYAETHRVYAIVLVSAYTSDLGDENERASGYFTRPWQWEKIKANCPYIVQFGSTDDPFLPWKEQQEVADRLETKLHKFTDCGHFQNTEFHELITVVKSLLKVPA
UniProt O75063: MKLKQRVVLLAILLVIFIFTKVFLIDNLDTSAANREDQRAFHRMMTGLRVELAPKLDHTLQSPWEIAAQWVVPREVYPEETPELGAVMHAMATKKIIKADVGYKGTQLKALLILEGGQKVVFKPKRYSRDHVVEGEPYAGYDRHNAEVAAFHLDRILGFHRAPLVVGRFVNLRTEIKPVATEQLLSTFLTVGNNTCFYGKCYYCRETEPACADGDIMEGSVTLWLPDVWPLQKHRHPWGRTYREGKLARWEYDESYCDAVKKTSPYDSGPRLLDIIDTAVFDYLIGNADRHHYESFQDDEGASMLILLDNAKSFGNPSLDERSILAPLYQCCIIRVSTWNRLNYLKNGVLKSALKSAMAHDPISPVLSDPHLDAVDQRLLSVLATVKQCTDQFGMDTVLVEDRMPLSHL
UniProt O95298, whole entry: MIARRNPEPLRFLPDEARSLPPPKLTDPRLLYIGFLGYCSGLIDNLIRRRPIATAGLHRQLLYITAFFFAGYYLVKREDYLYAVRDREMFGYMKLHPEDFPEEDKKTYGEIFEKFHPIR
UniProt O75369, whole entry: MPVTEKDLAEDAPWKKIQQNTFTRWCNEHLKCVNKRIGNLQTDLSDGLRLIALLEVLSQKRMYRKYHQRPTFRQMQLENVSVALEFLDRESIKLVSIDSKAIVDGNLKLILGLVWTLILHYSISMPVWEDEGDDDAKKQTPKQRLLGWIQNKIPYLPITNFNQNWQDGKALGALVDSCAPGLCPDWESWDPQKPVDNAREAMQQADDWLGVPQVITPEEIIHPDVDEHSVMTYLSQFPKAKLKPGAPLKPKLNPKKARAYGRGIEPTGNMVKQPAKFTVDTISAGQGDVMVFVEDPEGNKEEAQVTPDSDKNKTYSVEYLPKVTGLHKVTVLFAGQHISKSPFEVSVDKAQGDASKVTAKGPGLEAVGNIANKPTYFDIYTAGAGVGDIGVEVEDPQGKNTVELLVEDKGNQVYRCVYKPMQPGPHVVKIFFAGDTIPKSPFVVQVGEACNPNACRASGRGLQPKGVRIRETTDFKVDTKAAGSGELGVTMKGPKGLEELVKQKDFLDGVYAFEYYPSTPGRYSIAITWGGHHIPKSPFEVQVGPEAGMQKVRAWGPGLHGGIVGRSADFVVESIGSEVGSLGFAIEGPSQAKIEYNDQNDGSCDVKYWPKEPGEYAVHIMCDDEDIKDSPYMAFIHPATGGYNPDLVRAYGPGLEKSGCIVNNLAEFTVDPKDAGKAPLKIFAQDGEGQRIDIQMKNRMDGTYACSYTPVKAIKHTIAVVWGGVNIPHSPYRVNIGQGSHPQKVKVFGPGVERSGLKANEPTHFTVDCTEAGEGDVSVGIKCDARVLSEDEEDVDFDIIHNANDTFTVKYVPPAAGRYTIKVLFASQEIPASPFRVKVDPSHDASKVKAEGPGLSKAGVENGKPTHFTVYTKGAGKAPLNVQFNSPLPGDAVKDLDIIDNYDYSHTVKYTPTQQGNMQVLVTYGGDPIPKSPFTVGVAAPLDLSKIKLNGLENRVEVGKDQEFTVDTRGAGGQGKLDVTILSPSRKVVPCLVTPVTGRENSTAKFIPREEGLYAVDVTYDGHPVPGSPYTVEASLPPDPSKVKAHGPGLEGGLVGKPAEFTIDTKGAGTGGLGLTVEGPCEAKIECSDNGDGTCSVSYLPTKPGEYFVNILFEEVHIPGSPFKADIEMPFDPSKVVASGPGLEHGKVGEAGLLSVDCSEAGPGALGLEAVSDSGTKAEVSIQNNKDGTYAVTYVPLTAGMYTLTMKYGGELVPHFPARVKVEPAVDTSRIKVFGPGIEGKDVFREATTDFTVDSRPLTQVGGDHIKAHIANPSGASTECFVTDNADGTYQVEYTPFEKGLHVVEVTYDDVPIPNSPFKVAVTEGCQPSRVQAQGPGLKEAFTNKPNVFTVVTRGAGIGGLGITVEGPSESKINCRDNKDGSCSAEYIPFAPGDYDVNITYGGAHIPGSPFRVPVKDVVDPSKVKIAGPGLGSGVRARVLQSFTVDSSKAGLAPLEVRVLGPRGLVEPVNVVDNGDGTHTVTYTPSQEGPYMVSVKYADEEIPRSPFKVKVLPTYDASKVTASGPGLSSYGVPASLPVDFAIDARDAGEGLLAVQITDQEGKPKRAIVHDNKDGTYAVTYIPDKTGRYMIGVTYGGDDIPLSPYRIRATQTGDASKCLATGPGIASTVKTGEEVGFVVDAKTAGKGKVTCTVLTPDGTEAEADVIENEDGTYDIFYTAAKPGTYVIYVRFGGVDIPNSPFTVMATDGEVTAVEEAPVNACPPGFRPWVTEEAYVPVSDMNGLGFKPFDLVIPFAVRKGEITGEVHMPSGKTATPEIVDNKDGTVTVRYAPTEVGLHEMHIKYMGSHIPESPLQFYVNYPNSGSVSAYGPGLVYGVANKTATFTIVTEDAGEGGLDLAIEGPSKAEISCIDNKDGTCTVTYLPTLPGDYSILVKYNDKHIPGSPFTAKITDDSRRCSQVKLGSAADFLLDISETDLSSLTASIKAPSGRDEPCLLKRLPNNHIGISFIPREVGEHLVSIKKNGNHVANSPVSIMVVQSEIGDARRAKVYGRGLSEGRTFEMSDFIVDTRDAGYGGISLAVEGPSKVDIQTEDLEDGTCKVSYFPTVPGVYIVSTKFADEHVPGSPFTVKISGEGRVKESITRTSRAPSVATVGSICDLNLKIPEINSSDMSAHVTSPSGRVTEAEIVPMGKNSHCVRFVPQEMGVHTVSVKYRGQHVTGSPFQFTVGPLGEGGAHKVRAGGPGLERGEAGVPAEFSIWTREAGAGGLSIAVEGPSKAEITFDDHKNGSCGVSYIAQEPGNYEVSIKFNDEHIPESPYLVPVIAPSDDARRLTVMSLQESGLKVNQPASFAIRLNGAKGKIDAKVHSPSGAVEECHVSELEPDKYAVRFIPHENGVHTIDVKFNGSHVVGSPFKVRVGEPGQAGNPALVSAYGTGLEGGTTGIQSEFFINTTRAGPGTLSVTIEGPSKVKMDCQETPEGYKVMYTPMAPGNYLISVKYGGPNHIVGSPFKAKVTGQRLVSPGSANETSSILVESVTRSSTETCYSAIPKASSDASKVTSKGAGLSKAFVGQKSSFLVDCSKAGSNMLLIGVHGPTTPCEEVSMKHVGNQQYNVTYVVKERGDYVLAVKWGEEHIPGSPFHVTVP
UniProt O94822: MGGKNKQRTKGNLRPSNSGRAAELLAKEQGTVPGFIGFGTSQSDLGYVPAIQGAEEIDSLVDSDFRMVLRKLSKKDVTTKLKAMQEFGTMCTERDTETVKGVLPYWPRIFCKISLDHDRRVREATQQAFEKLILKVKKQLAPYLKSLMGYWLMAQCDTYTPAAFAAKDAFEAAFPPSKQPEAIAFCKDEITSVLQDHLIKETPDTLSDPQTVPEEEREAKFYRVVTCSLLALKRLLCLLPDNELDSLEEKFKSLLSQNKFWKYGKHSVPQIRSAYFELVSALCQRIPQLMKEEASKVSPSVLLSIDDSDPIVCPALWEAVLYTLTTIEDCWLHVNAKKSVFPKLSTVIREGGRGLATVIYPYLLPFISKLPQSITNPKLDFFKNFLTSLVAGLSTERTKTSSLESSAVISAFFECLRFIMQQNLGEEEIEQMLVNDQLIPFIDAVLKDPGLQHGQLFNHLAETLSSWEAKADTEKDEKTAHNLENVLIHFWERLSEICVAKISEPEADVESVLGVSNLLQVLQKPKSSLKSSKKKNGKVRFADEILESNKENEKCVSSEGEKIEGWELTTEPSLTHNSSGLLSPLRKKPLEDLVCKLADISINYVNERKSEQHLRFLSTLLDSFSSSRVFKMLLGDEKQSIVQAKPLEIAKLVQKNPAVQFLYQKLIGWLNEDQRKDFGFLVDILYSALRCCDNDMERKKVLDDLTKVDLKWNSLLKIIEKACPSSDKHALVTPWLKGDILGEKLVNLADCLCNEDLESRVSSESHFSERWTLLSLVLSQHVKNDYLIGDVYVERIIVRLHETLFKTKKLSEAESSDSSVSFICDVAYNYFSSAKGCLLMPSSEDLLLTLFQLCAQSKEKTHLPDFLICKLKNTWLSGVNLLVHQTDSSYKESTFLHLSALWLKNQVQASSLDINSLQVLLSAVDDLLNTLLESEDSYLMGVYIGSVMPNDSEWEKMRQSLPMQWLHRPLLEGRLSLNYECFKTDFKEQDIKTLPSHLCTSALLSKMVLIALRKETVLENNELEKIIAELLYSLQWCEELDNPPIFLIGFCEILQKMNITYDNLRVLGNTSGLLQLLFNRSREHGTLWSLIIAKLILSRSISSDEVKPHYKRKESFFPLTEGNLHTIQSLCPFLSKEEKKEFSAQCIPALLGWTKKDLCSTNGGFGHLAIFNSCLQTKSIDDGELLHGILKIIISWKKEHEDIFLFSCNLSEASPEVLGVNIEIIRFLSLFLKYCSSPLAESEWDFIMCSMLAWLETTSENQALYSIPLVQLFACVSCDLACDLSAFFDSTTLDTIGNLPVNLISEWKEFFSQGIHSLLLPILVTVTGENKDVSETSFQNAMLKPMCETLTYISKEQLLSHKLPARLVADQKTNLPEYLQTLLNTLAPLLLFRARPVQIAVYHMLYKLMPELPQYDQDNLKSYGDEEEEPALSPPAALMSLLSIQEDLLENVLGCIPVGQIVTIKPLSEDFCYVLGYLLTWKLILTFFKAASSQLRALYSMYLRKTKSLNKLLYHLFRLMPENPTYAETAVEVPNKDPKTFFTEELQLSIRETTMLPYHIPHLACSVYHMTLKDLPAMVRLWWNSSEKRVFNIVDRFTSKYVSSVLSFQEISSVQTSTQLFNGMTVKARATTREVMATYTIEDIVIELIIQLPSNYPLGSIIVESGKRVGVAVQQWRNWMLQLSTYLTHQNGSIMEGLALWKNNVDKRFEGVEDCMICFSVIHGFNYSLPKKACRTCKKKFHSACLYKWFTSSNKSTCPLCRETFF
UniProt O95149, whole entry: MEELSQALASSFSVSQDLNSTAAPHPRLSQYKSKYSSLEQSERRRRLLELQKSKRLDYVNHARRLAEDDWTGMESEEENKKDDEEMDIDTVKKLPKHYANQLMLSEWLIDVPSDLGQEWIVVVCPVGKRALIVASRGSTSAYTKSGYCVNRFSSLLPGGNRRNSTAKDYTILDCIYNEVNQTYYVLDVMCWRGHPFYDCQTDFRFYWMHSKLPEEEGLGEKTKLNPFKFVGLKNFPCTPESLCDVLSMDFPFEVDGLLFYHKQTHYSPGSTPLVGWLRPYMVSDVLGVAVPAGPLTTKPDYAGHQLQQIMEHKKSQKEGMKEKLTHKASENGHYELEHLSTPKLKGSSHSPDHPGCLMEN

Compound: Nc1ncnc2c1ncn2[C@@H]1O[C@H](COP(=O)(O)OP(=O)(O)NP(=O)(O)O)[C@@H](O)[C@H]1O [adenylyl imidodiphosphate]
Experiment: NP40-soluble protein abundance relative to vehicle (solubility fold change) (ratio); higher = more soluble protein in presence of AMP-PNP
Procedure, shortened: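 Eight concentrations, 0.1 to 10 mM, were tested on Jurkat crude lysate for 10 min at room temperature and then 3 min at 37 °C, in three independent experiments. The lysate was solubilised with 0.8% NP40 and benzonase, ultracentrifuged, and the supernatant TMT-labelled for LC-MS/MS. Each value is the fold change against the detergent-processed vehicle in its own replicate, from vsn-normalised intensities.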

Target	NP40-soluble protein abundance (concentration: 1mM)	NP40-soluble protein abundance (concentration: 2mM)	NP40-soluble protein abundance (concentration: 4mM)	NP40-soluble protein abundance (concentration: 6mM)	NP40-soluble protein abundance (concentration: 8mM)	NP40-soluble protein abundance (concentration: 10mM)
UniProt O95466-2|O95466-3	1.01 ± 0.022	1.04 ± 0.049	1 ± 0.037	0.9896 ± 0.0097	0.951 ± 0.026	0.983 ± 0.019
O60344 and related entries (UniProt P0DPD6)	0.9761 ± 0.0039	0.9971 ± 0.0055	0.9621 ± 0.0038	0.992 ± 0.023	1.022 ± 0.0092	0.9766 ± 0.0043
UniProt O60313-2|E5KLJ5	1.01 ± 0.013	0.98 ± 0.071	0.988 ± 0.027	0.968 ± 0.019	0.96 ± 0.027	0.954 ± 0.029
UniProt O95571 and related entries	1.006 ± 0.0088	0.967 ± 0.019	1.019 ± 0.008	0.967 ± 0.017	0.994 ± 0.044	0.968 ± 0.02
UniProt O95219 and related entries	1.02 ± 0.014	1.02 ± 0.011	1.02 ± 0.04	1.01 ± 0.015	0.97 ± 0.029	0.98 ± 0.035
RBBP9 (UniProt O75884)	1.01 ± 0.024	1.01 ± 0.035	0.98 ± 0.035	0.967 ± 0.028	0.98 ± 0.043	0.97 ± 0.029
CAND2 (UniProt O75155)	0.973 ± 0.018	0.942 ± 0.027	0.986 ± 0.045	1 ± 0.066	1.01 ± 0.031	1.02 ± 0.023
UniProt O75530	0.978 ± 0.038	1 ± 0.018	1.05 ± 0.016	1.14 ± 0.097	1.22 ± 0.057	1.22 ± 0.05
UniProt O75182 and related entries	0.981 ± 0.023	0.986 ± 0.03	1 ± 0.069	1.03 ± 0.053	1.05 ± 0.068	1.04 ± 0.063
FAM20B (UniProt O75063)	0.973 ± 0.02	0.993 ± 0.022	0.978 ± 0.024	0.99 ± 0.024	0.963 ± 0.016	1 ± 0.042
UniProt O75494 and related entries	1.04 ± 0.04	1.04 ± 0.013	1.04 ± 0.033	1.03 ± 0.071	1.05 ± 0.059	1.07 ± 0.095
UniProt O60488 and related entries	1.06 ± 0.04	0.989 ± 0.12	1.05 ± 0.078	1.02 ± 0.041	1.03 ± 0.033	1.02 ± 0.067
WBP4 (UniProt O75554)	1.02 ± 0.032	1.08 ± 0.081	1.02 ± 0.013	1.05 ± 0.022	0.99 ± 0.023	1.06 ± 0.012
UniProt O75143 and related entries	1.05 ± 0.037	1.01 ± 0.016	1.03 ± 0.017	0.96 ± 0.045	0.979 ± 0.057	0.974 ± 0.042
SH3BP5 (UniProt O60239)	0.968 ± 0.021	1.04 ± 0.067	0.906 ± 0.052	0.964 ± 0.032	0.934 ± 0.042	0.961 ± 0.035
HERC2 (UniProt O95714)	1.02 ± 0.09	0.922 ± 0.17	1.04 ± 0.031	1.11 ± 0.032	1.15 ± 0.12	1.07 ± 0.15
POLR1A (UniProt O95602)	1 ± 0.017	1 ± 0.086	1.07 ± 0.1	1.08 ± 0.12	1.07 ± 0.14	1.11 ± 0.14
UniProt O95298 and related entries	0.958 ± 0.11	0.949 ± 0.036	0.902 ± 0.068	0.82 ± 0.018	0.852 ± 0.017	0.756 ± 0.042
UniProt O60343 and related entries	1.03 ± 0.038	0.982 ± 0.031	0.994 ± 0.015	0.989 ± 0.018	0.979 ± 0.011	0.977 ± 0.02
NADK (UniProt O95544)	1.01 ± 0.039	0.993 ± 0.014	1.03 ± 0.024	1.08 ± 0.026	1.06 ± 0.035	1.1 ± 0.025
UniProt O75569 and related entries	1.01 ± 0.0093	0.99 ± 0.021	1.05 ± 0.027	1.06 ± 0.018	1.12 ± 0.024	1.14 ± 0.026
UniProt O75369-8|O75369-9|O75369 and related entries	1.01 ± 0.02	1.04 ± 0.029	0.99 ± 0.02	0.987 ± 0.03	0.951 ± 0.016	0.968 ± 0.034
RAB3D (UniProt O95716)	0.994 ± 0.039	0.981 ± 0.039	1.02 ± 0.039	1.01 ± 0.016	1.04 ± 0.041	1 ± 0.024
KPNA6 (UniProt O60684)	1.01 ± 0.014	0.984 ± 0.019	1.011 ± 0.0049	0.9915 ± 0.0065	1.01 ± 0.012	0.972 ± 0.021
ZBTB7A (UniProt O95365)	1.01 ± 0.064	1.04 ± 0.079	1.07 ± 0.056	1.01 ± 0.038	1.05 ± 0.066	1.08 ± 0.027
AGFG2 (UniProt O95081)	0.987 ± 0.022	1.01 ± 0.025	0.986 ± 0.033	1.04 ± 0.028	0.986 ± 0.027	1 ± 0.02
VAPB (UniProt O95292)	1.05 ± 0.028	1.08 ± 0.07	1.03 ± 0.06	1.033 ± 0.0086	1 ± 0.041	1.03 ± 0.064

Target	NP40-soluble protein abundance (concentration: 1mM)	NP40-soluble protein abundance (concentration: 2mM)	NP40-soluble protein abundance (concentration: 4mM)	NP40-soluble protein abundance (concentration: 6mM)	NP40-soluble protein abundance (concentration: 8mM)	NP40-soluble protein abundance (concentration: 10mM)
ATG12 (UniProt O94817)	0.962 ± 0.053	1.01 ± 0.061	0.976 ± 0.022	0.99 ± 0.041	0.975 ± 0.028	1.02 ± 0.025
ATG7 (UniProt O95352)	0.997 ± 0.014	0.935 ± 0.1	0.974 ± 0.012	0.955 ± 0.042	0.954 ± 0.03	0.928 ± 0.012
UniProt O95628-10|O95628-4|O95628-8|O95628-9|O95628 and related entries	1.02 ± 0.024	1.01 ± 0.065	0.986 ± 0.016	1.03 ± 0.015	1 ± 0.015	0.985 ± 0.027
SMARCA5 (UniProt O60264)	1.03 ± 0.038	1.04 ± 0.019	1.11 ± 0.083	1.21 ± 0.073	1.25 ± 0.098	1.26 ± 0.12
DNAJC13 (UniProt O75165)	1.02 ± 0.049	1 ± 0.055	1.08 ± 0.054	1.11 ± 0.068	1.17 ± 0.1	1.19 ± 0.16
DKC1 (UniProt O60832)	1.049 ± 0.0097	1.1 ± 0.057	1.13 ± 0.028	1.21 ± 0.051	1.29 ± 0.046	1.36 ± 0.083
RNASEH1 (UniProt O60930)	1.03 ± 0.032	1.01 ± 0.023	0.997 ± 0.02	1.04 ± 0.051	1.09 ± 0.043	1.1 ± 0.014
UniProt O60502	0.981 ± 0.015	0.956 ± 0.04	0.972 ± 0.023	0.926 ± 0.023	0.917 ± 0.016	0.915 ± 0.0093
UniProt O60861 and related entries	1.06 ± 0.024	1.08 ± 0.067	1.05 ± 0.044	1.05 ± 0.011	1.04 ± 0.043	1.05 ± 0.029
TRMU (UniProt O75648)	0.971 ± 0.029	0.942 ± 0.042	0.9866 ± 0.0065	1.02 ± 0.044	1.02 ± 0.052	1.02 ± 0.049
UniProt O75935 and related entries	0.932 ± 0.1	0.942 ± 0.076	0.898 ± 0.091	0.929 ± 0.095	0.976 ± 0.11	0.909 ± 0.11
PDCD6 (UniProt O75340)	0.985 ± 0.036	0.928 ± 0.036	1.04 ± 0.045	1.07 ± 0.12	1.18 ± 0.052	1.1 ± 0.048
IPO13 (UniProt O94829)	0.976 ± 0.016	0.977 ± 0.04	0.9573 ± 0.009	0.994 ± 0.046	0.965 ± 0.03	0.935 ± 0.015
DUSP11 (UniProt O75319)	1.02 ± 0.015	1.03 ± 0.018	1.05 ± 0.037	1.03 ± 0.035	1.06 ± 0.046	1.06 ± 0.078
UniProt O94822 and related entries	0.988 ± 0.027	0.945 ± 0.059	0.988 ± 0.025	0.937 ± 0.032	0.962 ± 0.022	0.9245 ± 0.006
ENDOD1 (UniProt O94919)	1.06 ± 0.039	1.06 ± 0.029	1.05 ± 0.069	1.01 ± 0.025	1 ± 0.041	1.02 ± 0.062
UniProt O75367 and related entries	1.01 ± 0.066	1 ± 0.055	1.05 ± 0.075	1.15 ± 0.034	1.26 ± 0.092	1.44 ± 0.049
UniProt O75808 and related entries	1.02 ± 0.024	1.01 ± 0.018	1 ± 0.039	1 ± 0.021	1.009 ± 0.0052	0.9828 ± 0.0012
FARS2 (UniProt O95363)	0.9733 ± 0.0048	0.856 ± 0.13	0.943 ± 0.01	0.9111 ± 0.0032	0.919 ± 0.033	0.876 ± 0.029
UniProt O75390 and related entries	0.966 ± 0.094	0.834 ± 0.23	0.977 ± 0.042	0.846 ± 0.26	0.941 ± 0.088	0.897 ± 0.12
WFS1 (UniProt O76024)	1.03 ± 0.017	1.037 ± 0.0083	1 ± 0.011	0.991 ± 0.03	0.982 ± 0.037	1 ± 0.011
SNUPN (UniProt O95149)	0.983 ± 0.038	0.946 ± 0.034	1 ± 0.059	1.01 ± 0.04	1.05 ± 0.045	1.04 ± 0.031
UniProt O95475	0.989 ± 0.047	1.02 ± 0.037	1.009 ± 0.0082	1.06 ± 0.066	1.12 ± 0.077	1.1 ± 0.066
UniProt O60711 and related entries	1.061 ± 0.0069	1.1 ± 0.024	1.07 ± 0.032	1.01 ± 0.013	1.03 ± 0.016	1.02 ± 0.043
PCF11 (UniProt O94913)	1.036 ± 0.008	1.09 ± 0.061	1.08 ± 0.011	1.07 ± 0.044	1.05 ± 0.011	1.1 ± 0.019
TGDS (UniProt O95455)	0.989 ± 0.016	0.969 ± 0.032	0.973 ± 0.016	0.982 ± 0.034	0.993 ± 0.028	0.988 ± 0.039

Only NP40-soluble protein abundance (concentration: 6mM), NP40-soluble protein abundance (concentration: 1mM) and NP40-soluble protein abundance (concentration: 10mM), for some of the entries so far:
Target	NP40-soluble protein abundance (concentration: 6mM)	NP40-soluble protein abundance (concentration: 1mM)	NP40-soluble protein abundance (concentration: 10mM)
UniProt O75530	1.14 ± 0.097	0.978 ± 0.038	1.22 ± 0.05
UniProt O95628-10|O95628-4|O95628-8|O95628-9|O95628 and related entries	1.03 ± 0.015	1.02 ± 0.024	0.985 ± 0.027
